Data: the supplement of paper PMC12823440, “Inhibitors supercharge kinase turnover through native proteolytic circuits” (Nature, 2025)
Counter-ions that a name gives are not always drawn. The list shows a part of the results. Hit calls seldom repeat between salt and free forms of one compound.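 In K562 cells expressing nanoluciferase-fused kinases, luminescence was recorded at 4 h intervals between 2 and 18 h, normalized as percent of control with DMSO at 100% and a positive control at 0%. A significant (2 sigma) signal drop marks a time point as decreased. The authors' rule for a hit is not shown and takes in more than the number of time points.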

By UniProt entry, the sequences of proteins in these tests, tags left out. Where a name states a change or a piece, a line headed by the entry shows the natural chain unless it says otherwise.
UniProt P51451: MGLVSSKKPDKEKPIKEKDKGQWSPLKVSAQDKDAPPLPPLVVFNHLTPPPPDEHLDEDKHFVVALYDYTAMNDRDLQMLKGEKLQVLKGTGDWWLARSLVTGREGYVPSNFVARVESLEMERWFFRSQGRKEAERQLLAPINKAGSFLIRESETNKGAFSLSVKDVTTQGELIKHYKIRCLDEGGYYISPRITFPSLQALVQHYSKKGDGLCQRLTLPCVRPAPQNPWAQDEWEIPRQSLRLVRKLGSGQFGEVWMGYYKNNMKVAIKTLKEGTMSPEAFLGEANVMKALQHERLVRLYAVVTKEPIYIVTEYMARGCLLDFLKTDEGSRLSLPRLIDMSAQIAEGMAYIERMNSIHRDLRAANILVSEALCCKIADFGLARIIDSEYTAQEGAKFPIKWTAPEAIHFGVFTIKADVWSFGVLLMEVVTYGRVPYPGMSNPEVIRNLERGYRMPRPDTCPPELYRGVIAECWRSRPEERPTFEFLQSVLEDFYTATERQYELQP
UniProt P51813: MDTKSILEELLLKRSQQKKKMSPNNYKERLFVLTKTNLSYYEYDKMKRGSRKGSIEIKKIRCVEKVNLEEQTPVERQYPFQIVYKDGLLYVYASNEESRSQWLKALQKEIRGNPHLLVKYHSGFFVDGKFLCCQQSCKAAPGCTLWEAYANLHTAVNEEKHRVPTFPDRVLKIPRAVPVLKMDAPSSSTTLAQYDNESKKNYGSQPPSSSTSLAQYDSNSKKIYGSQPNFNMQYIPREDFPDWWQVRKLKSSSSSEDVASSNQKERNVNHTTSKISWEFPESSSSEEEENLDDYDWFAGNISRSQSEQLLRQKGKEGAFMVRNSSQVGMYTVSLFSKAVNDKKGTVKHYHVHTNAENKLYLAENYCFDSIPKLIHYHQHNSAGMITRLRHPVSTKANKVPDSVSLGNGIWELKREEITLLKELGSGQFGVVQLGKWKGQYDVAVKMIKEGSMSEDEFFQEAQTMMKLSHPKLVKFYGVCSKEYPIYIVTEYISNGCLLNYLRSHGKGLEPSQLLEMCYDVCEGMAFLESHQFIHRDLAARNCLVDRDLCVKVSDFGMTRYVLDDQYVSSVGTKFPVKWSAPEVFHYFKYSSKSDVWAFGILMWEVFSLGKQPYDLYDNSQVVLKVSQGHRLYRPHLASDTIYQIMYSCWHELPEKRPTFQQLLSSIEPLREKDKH

target: BLK (UniProt P51451); assay: kinase-Nluc reporter destabilization hit call (1 = scored as downregulated) (binary); higher = compound decreases kinase abundance; settings: K562; 2-18 h

kinase-Nluc reporter destabilization hit call, inactive:
CCc1ccc(C(=O)COc2ccc(CC3SC(=O)NC3=O)cc2)nc1 (stereo not drawn) (10 µM) 0
Cc1ccc(-c2ccc3c(ccc4sc5c(c43)NC[C@@H](C)NC5=O)n2)cn1 (10 µM) 0
CC[C@H](Nc1ncnc2[nH]cnc12)c1oc2ccccc2c(=O)c1-c1cccc(F)c1 [Tenalisib] (10 µM) 0
CCCC(=O)Nc1nc2c(ncn2[C@@H]2O[C@@H]3COP(=O)(O)O[C@H]3[C@H]2OC(=O)CCC)c(=O)[nH]1 [Dibutyryl-cGMP (sodium)] (10 µM) 0
CC(C)c1cnn2c(NCc3ccccc3-n3cccn3)nc(OC3CCCNC3)nc12 (stereo not drawn) (2.5 µM) 0
OCCN(CCO)c1ccc(C(c2ccc(Cl)cc2)c2ccc(N(CCO)CCO)cc2)cc1 (10 µM) 0
CCCCNC(=N)NC(=N)N [Buformin (hydrochloride)] (2.5 µM) 0
Fc1c(Br)cccc1Nc1ncnc2cc3c(cc12)OCCO3 (2.5 µM) 0
Cc1cc(Nc2nc(N[C@@H](C)c3ncc(F)cn3)ncc2Cl)[nH]n1 (10 µM) 0
Cc1cc(Nc2cc(CN3CCOCC3)c3nc(C)c(Cc4ccc(Cl)cc4F)n3n2)n[nH]1 [Gandotinib] (2.5 µM) 0
COc1cc(N2CCC(N(C)C)CC2)ccc1Nc1ncc(Cl)c(Nc2ccccc2P(C)(C)=O)n1 (2.5 µM) 0
Nc1[nH]c(=O)nc2c1ncn2[C@@H]1O[C@H](CO)[C@@H](O)[C@H]1O [Crotonoside] (10 µM) 0
Cn1cc(-c2ccc(F)c(C(F)(F)F)c2)nc1C1CCN(c2ncnc3[nH]ncc23)CC1 (10 µM) 0
CCOc1ccccc1C=C1C(=O)Nc2ccccc21 (10 µM) 0
CC(C)(C)C(=O)N1N=CC[C@H]1c1ccccc1 (10 µM) 0
COc1ccc(CCNc2ncc3c(=O)n(-c4cccc(F)c4)c(=O)[nH]c3n2)cc1OC (2 µM) 0
Cc1ccc(-c2nn(C(C)(C)CNC(=O)c3ccncc3)c3ncnc(N)c23)cc1 (2.5 µM) 0
CNC(=O)c1ccc(-c2cnc3cnc(-c4ccccc4)cn23)cc1 (10 µM) 0
CCn1nc(C2CCN(C(=O)CCO)CC2)nc1-c1cnc(N)c(-c2nnc(C(C)(C)C)o2)n1 (10 µM) 0
CCCCCCCC/C=C\CCCCCCCC(=O)NCC(=O)O [N-Oleoyl glycine] (10 µM) 0
CC1(COc2ccc3c(c2)ncn3-c2ccc3cccc(N4CCC(N)CC4)c3n2)COC1 [Crenolanib] (2.5 µM) 0
CC(CCc1ccccn1)(CCc1ccccn1)C(=O)c1ccccc1 (10 µM) 0
COc1cc(-c2cc(-c3cc(OC)c(OC)c(OC)c3)cc(C(F)P(=O)(OCOC(=O)C(C)(C)C)OCOC(=O)C(C)(C)C)c2)cc(OC)c1OC (stereo not drawn) [Stafia-1-dipivaloyloxymethyl ester] (2.5 µM) 0
CC1(N)CCN(c2cnc3c(-c4cccc(Cl)c4Cl)[nH]nc3n2)CC1 (2.5 µM) 0
CC(C)(O)[C@@H]1CC[C@](C)([C@H]2[C@@H](O)C[C@@]3(C)[C@@H]4C[C@H](O[C@@H]5O[C@H](CO)[C@@H](O)[C@H](O)[C@H]5O)[C@H]5C(C)(C)[C@@H](O[C@@H]6OC[C@@H](O)[C@H](O)[C@H]6O[C@@H]6O[C@H](CO)[C@@H](O)[C@H](O)[C@H]6O)CC[C@@]56C[C@@]46CC[C@]23C)O1 [Astragaloside VI] (10 µM) 0
Cc1nc(NC(=O)NCCc2nnn(CCF)n2)sc1-c1ccc(S(C)(=O)=O)c(F)c1 (10 µM) 0
CCN(C)C(=O)c1ccc2c(C(=Nc3ccc(CN4CCCCC4)cc3)c3ccccc3)c(O)[nH]c2c1 (2.5 µM) 0
CC(=O)Nc1nc(C)c(-c2nc(N3CCCC(O)C3)no2)s1 (stereo not drawn) (10 µM) 0
COc1c(O)cc2oc3cc(O)c(CC=C(C)C)c(O)c3c(=O)c2c1CCC(C)(C)O [Garcinone D] (2.5 µM) 0

target: BMX (UniProt P51813); assay: as above; settings: K562; 2-18 h

kinase-Nluc reporter destabilization hit call, inactive:
O=S(=O)(c1cccc2cnccc12)N1CCNCC1 (10 µM) 0
COc1cc(C(C)=O)cc(OC)c1O [Acetosyringone] (10 µM) 0
CCOc1c([C@H](C)n2nc(C)c3c(N)ncnc32)cc(Cl)c(F)c1[C@@H]1CNC(=O)C1 [Parsaclisib (hydrochloride)] (10 µM) 0
CC[C@H](C)[C@H](NC(=O)[C@H](CCC(=O)O)NC(=O)[C@H](CCCN=C(N)N)NC(=O)[C@H](CCCN=C(N)N)NC(=O)[C@@H](N)CCCCN)C(=O)N[C@@H](CC(C)C)C(=O)N[C@@H](CO)C(=O)N[C@@H](CCCN=C(N)N)C(=O)N[C@@H](CCCN=C(N)N)C(=O)N1CCC[C@H]1C(=O)N[C@@H](CO)C(=O)N[C@@H](Cc1ccc(O)cc1)C(=O)N[C@@H](CCCN=C(N)N)C(=O)O [CREBtide] (10 µM) 0
O=C(O)CCc1ccc(NCc2cccc(Oc3ccccc3)c2)cc1 (10 µM) 0
O[C@H]1CC[C@H](Nc2ncc3nc(Nc4c(F)cc(F)cc4F)n([C@H]4CCOC4)c3n2)CC1 [Tanzisertib] (10 µM) 0
Oc1ccccc1C(=S)N1CCCC1 (10 µM) 0
CC[C@@H]1C(=O)N(C)c2cnc(Nc3ccc(C(=O)N[C@H]4CC[C@H](N5CCN(CC6CC6)CC5)CC4)cc3OC)nc2N1C(C)C [Volasertib] (2.5 µM) 0
C[C@@H]1O[C@@H](OC[C@H]2O[C@@H](Oc3cc(O)c4c(c3)O[C@H](c3ccc(O)cc3)CC4=O)[C@H](O)[C@@H](O)[C@@H]2O)[C@H](O)[C@H](O)[C@H]1O [Narirutin] (10 µM) 0
CCc1ccc(C(=O)COc2ccc(CC3SC(=O)NC3=O)cc2)nc1 (stereo not drawn) (10 µM) 0
Cc1ccc(-c2ccc3c(ccc4sc5c(c43)NC[C@@H](C)NC5=O)n2)cn1 (10 µM) 0
CC[C@H](Nc1ncnc2[nH]cnc12)c1oc2ccccc2c(=O)c1-c1cccc(F)c1 [Tenalisib] (10 µM) 0
CCCC(=O)Nc1nc2c(ncn2[C@@H]2O[C@@H]3COP(=O)(O)O[C@H]3[C@H]2OC(=O)CCC)c(=O)[nH]1 [Dibutyryl-cGMP (sodium)] (10 µM) 0
CC(C)c1cnn2c(NCc3ccccc3-n3cccn3)nc(OC3CCCNC3)nc12 (stereo not drawn) (2.5 µM) 0
OCCN(CCO)c1ccc(C(c2ccc(Cl)cc2)c2ccc(N(CCO)CCO)cc2)cc1 (10 µM) 0
CCCCNC(=N)NC(=N)N [Buformin (hydrochloride)] (2.5 µM) 0
Fc1c(Br)cccc1Nc1ncnc2cc3c(cc12)OCCO3 (2.5 µM) 0
Cc1cc(Nc2nc(N[C@@H](C)c3ncc(F)cn3)ncc2Cl)[nH]n1 (10 µM) 0
Cc1cc(Nc2cc(CN3CCOCC3)c3nc(C)c(Cc4ccc(Cl)cc4F)n3n2)n[nH]1 [Gandotinib] (2.5 µM) 0
COc1cc(N2CCC(N(C)C)CC2)ccc1Nc1ncc(Cl)c(Nc2ccccc2P(C)(C)=O)n1 (2.5 µM) 0
Nc1[nH]c(=O)nc2c1ncn2[C@@H]1O[C@H](CO)[C@@H](O)[C@H]1O [Crotonoside] (10 µM) 0
Cn1cc(-c2ccc(F)c(C(F)(F)F)c2)nc1C1CCN(c2ncnc3[nH]ncc23)CC1 (10 µM) 0
CCOc1ccccc1C=C1C(=O)Nc2ccccc21 (10 µM) 0
CC(C)(C)C(=O)N1N=CC[C@H]1c1ccccc1 (10 µM) 0
COc1ccc(CCNc2ncc3c(=O)n(-c4cccc(F)c4)c(=O)[nH]c3n2)cc1OC (2 µM) 0
Cc1ccc(-c2nn(C(C)(C)CNC(=O)c3ccncc3)c3ncnc(N)c23)cc1 (2.5 µM) 0
CNC(=O)c1ccc(-c2cnc3cnc(-c4ccccc4)cn23)cc1 (10 µM) 0
CCn1nc(C2CCN(C(=O)CCO)CC2)nc1-c1cnc(N)c(-c2nnc(C(C)(C)C)o2)n1 (10 µM) 0
CCCCCCCC/C=C\CCCCCCCC(=O)NCC(=O)O [N-Oleoyl glycine] (10 µM) 0
CC1(COc2ccc3c(c2)ncn3-c2ccc3cccc(N4CCC(N)CC4)c3n2)COC1 [Crenolanib] (2.5 µM) 0
CC(CCc1ccccn1)(CCc1ccccn1)C(=O)c1ccccc1 (10 µM) 0
COc1cc(-c2cc(-c3cc(OC)c(OC)c(OC)c3)cc(C(F)P(=O)(OCOC(=O)C(C)(C)C)OCOC(=O)C(C)(C)C)c2)cc(OC)c1OC (stereo not drawn) [Stafia-1-dipivaloyloxymethyl ester] (2.5 µM) 0
CC1(N)CCN(c2cnc3c(-c4cccc(Cl)c4Cl)[nH]nc3n2)CC1 (2.5 µM) 0
CC(C)(O)[C@@H]1CC[C@](C)([C@H]2[C@@H](O)C[C@@]3(C)[C@@H]4C[C@H](O[C@@H]5O[C@H](CO)[C@@H](O)[C@H](O)[C@H]5O)[C@H]5C(C)(C)[C@@H](O[C@@H]6OC[C@@H](O)[C@H](O)[C@H]6O[C@@H]6O[C@H](CO)[C@@H](O)[C@H](O)[C@H]6O)CC[C@@]56C[C@@]46CC[C@]23C)O1 [Astragaloside VI] (10 µM) 0
